This note sets out measurements from PMC3828775.

By UniProt entry, the sequences of proteins in these tests, tags left out. Where a name states a change or a piece, a line headed by the entry shows the natural chain unless it says otherwise.
UniProt P49792: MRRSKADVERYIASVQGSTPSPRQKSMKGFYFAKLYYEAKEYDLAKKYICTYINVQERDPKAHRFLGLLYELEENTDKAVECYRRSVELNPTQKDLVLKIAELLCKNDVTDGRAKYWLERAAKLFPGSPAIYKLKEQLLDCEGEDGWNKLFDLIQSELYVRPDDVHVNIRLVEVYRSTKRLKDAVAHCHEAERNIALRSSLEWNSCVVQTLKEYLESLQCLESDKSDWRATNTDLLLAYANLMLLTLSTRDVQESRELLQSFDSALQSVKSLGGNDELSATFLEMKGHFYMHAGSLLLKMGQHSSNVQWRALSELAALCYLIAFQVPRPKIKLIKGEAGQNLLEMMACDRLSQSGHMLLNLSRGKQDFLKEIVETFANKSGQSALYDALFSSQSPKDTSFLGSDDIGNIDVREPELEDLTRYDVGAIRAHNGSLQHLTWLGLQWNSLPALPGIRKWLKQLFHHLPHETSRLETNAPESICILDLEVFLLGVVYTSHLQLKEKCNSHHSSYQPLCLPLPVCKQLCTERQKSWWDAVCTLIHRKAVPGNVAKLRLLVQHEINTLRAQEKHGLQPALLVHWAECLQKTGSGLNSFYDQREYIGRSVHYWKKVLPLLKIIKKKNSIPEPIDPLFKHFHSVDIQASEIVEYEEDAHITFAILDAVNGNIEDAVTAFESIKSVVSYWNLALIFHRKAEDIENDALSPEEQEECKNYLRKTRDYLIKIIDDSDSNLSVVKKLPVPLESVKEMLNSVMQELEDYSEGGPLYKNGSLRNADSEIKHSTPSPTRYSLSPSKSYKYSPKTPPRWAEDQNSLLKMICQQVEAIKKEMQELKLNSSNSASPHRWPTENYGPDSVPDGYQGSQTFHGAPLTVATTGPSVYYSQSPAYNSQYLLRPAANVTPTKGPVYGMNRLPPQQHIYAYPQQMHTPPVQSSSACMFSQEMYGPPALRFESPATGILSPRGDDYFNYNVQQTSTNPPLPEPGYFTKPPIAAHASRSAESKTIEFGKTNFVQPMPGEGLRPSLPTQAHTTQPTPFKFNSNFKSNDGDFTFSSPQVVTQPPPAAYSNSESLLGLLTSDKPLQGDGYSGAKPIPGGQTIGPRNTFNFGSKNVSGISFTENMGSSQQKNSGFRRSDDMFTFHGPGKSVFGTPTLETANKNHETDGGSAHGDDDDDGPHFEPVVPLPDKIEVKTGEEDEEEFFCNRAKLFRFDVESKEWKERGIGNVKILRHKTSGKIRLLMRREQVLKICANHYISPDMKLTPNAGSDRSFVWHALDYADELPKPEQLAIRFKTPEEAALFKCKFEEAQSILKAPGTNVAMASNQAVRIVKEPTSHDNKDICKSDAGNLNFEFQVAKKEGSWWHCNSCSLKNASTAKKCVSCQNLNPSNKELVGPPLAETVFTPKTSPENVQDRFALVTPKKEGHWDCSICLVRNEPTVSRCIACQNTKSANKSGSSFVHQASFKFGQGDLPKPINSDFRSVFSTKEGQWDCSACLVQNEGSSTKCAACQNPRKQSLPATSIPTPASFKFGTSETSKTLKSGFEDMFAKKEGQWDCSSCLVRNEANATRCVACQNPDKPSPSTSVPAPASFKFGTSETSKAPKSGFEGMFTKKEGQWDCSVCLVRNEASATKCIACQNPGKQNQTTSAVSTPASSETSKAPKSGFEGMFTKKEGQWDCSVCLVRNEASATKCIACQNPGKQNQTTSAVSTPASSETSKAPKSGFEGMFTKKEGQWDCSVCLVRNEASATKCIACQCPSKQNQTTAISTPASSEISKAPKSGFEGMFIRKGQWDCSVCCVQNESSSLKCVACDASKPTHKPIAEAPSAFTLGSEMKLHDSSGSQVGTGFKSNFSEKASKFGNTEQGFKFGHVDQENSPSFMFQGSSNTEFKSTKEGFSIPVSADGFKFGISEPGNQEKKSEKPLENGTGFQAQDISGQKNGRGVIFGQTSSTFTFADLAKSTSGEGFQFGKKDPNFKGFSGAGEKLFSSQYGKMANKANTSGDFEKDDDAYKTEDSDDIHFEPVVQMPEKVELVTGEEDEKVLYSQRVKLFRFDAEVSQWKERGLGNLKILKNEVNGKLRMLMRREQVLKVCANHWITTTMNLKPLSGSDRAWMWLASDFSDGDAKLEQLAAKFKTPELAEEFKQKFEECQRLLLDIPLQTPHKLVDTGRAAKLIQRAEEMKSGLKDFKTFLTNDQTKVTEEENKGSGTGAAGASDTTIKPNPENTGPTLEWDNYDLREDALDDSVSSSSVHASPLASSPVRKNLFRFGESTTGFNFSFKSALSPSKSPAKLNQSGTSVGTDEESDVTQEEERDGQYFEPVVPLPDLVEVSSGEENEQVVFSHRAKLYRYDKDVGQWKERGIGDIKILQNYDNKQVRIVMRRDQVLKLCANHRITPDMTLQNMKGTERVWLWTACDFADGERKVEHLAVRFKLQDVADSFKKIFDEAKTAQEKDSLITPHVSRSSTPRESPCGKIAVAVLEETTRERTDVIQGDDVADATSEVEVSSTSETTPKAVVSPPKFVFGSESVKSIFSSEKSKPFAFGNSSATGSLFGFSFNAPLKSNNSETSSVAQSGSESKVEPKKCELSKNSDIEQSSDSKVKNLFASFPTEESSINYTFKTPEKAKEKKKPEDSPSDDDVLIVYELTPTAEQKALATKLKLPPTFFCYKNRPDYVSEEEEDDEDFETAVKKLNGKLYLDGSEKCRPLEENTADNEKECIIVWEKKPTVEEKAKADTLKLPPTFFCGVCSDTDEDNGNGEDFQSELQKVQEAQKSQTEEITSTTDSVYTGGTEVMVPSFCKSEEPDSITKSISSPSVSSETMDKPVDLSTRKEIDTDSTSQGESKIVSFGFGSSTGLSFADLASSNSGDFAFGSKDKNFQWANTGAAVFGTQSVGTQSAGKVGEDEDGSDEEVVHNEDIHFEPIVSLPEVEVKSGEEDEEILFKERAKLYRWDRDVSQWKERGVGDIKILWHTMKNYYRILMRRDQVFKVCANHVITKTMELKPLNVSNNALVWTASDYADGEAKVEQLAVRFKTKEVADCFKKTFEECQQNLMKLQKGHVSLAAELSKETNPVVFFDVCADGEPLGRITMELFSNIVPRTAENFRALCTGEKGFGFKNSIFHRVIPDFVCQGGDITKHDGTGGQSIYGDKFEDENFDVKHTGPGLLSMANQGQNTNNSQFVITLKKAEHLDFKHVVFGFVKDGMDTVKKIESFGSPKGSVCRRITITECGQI
UniProt Q9Z340: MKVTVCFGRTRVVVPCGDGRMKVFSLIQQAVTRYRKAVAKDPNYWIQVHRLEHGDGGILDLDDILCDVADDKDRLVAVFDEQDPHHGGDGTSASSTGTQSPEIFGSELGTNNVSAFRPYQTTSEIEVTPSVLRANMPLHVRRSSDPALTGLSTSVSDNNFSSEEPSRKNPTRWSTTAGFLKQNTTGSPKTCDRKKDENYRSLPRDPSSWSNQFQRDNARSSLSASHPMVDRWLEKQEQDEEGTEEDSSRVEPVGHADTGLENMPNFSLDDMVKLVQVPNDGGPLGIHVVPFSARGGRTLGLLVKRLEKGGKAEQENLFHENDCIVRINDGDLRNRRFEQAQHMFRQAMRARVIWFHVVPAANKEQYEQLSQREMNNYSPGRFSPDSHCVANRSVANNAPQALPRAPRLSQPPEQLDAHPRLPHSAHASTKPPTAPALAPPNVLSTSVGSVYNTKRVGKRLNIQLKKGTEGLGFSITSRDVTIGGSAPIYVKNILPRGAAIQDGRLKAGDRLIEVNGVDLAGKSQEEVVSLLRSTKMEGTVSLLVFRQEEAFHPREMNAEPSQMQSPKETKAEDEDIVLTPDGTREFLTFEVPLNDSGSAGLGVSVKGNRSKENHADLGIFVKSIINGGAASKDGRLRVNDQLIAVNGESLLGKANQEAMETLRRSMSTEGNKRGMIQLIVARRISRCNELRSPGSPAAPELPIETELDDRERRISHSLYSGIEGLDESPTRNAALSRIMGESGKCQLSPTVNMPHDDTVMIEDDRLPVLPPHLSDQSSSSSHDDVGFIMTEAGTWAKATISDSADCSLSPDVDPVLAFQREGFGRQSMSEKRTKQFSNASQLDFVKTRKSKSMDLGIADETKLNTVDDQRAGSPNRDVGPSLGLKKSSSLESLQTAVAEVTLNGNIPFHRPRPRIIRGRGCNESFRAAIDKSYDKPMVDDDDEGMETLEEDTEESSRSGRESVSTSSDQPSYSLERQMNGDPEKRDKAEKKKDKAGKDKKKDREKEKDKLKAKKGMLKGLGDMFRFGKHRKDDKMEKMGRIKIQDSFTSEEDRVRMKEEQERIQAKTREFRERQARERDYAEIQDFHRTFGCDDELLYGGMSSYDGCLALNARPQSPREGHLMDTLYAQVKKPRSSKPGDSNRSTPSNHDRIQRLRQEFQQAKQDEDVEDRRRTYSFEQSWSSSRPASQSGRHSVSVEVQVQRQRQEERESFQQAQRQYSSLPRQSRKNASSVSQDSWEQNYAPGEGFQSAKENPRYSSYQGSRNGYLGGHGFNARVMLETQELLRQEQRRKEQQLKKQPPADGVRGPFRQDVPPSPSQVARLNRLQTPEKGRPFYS

Assay [1] deals with T1, GFP-Dvl-M (Dvl1 211–425 amino acids) (mouse) (UniProt P51141).
T1 sequence: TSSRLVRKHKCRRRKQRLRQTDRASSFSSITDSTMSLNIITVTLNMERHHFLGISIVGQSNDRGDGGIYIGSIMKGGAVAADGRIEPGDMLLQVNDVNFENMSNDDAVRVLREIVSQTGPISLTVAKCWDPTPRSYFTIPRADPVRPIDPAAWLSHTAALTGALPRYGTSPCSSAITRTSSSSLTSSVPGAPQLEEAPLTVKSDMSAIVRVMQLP
The assay is described as follows: co-IP; co-expressed GFP-tagged and HA-tagged proteins; immunoprecipitation with anti-GFP antibodies; blot for GFP and HA; cytoskeleton extraction buffer, 2 hours at 4°C.

A further assay deals with T2, HA-PKCζ (human) (UniProt Q05513).
T2 sequence: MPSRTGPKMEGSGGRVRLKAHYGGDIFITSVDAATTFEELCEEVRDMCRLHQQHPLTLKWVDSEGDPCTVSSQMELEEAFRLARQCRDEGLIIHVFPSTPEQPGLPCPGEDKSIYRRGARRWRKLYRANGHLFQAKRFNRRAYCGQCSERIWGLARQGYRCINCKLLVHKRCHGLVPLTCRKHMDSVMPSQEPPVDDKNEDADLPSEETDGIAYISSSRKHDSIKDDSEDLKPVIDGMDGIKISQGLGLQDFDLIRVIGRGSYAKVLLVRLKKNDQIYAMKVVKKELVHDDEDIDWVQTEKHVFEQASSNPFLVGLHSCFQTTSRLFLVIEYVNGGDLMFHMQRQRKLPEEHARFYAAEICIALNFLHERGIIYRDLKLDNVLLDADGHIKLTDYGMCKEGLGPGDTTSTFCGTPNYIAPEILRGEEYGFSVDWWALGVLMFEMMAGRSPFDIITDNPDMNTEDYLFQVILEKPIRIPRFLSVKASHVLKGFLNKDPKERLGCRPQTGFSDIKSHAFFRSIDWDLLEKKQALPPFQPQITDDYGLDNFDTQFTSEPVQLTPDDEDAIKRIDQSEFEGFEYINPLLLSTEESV
The assay is described as follows: co-IP; cells co-transfected with HA-PKCζ and GFP-tagged BPN, BPM or BPC; immunoprecipitation with EZview HA beads (EZview control beads as control); immunoblot.

The target in assay [2] is Nup358 (endogenous, HEK293T) (human (endogenous in HEK293T)) (UniProt P49792). The experiment in a line: co-IP; Nup358 with ectopically expressed PKCζ wild type or kinase dead, HA-Par3 or myc-Par6 (supplementary Fig. S2A-C); legends not shown.
For assay [3] the target is unchanged. The assay is described as follows: co-IP; endogenous Nup358 immunoprecipitated with rabbit polyclonal anti-Nup358 (control rabbit IgG) from lysate of HEK293T cells, untransfected or expressing an HA-tagged partner; cytoskeleton extraction buffer (10 mM Tris-HCl pH 7.4, 100 mM NaCl, 1% Triton X-100, 0.1% SDS, 0.5% deoxycholate), 2 hours at 4°C; western blot.
Substrate in assay [4]: BPN (as used in supplementary Fig. S1A) (human) (UniProt P49792)
The assay is described as follows: co-IP; Dvl2 and its deletion mutants with BPN (supplementary Fig. S1A); legend not shown.

Assay [5] concerns the target GFP-BPN (Nup358 N-terminus, 1–900 amino acids) (human) (UniProt P49792). The assay is described as follows: co-IP; co-expressed GFP-tagged and HA-tagged proteins; immunoprecipitation with anti-GFP antibodies; blot for GFP and HA; cytoskeleton extraction buffer, 2 hours at 4°C.

These are yes or no findings as the source states them, for the method shown. In cells and extracts the contact can be indirect. Some results given as binding are weak or reduced against the parent protein; the word gives no strength. For some assays here: Sequences can lack the tags named with a protein.

For the molecule “HA-BPN (from UniProt P49792 1-900) (domain or fragment)”, the binding entry in assay [1] is listed as “binds”.

In the case of “GFP-BPN (Nup358 N-terminus, 1–900 amino acids) (from UniProt P49792 1-900) (domain or fragment)”, the binding entry in the assay with HA-PKCζ (human) is “binds”.

On to “HA-Par3 (rat Par3 homolog ASIP) (from UniProt Q9Z340 1-1337)”, for which the binding entry in assay [2] was “binds”.

As to “GFP-BPC (Nup358 C terminus, 2220–3224 amino acids) (from UniProt P49792 2220-3224) (domain or fragment)”, the binding result in the assay with HA-PKCζ (human) is “binds weakly”.

B1: aPKC (PKCζ), endogenous, HEK293T (enzyme, UniProt Q05513 1-592)
chain: T2 sequence
Take B1: in assay [3], the binding entry is on record as “binds”.

B2: PKCζ wild type (as used in supplementary Fig. S2A) (enzyme, UniProt Q05513 1-592)
chain: T2 sequence
Turning to B2, the binding entry in assay [2] is “binds”.

B3: Mouse Dvl2 (protein, UniProt Q60838 1-736)
chain: MAGSSAGGGGVGETKVIYHLDEEETPYLVKIPVPAERITLGDFKSVLQRPAGAKYFFKSMDQDFGVVKEEISDDNARLPCFNGRVVSWLVSSDTPQPEVAPPAHESRTELVPPPPPLPPLPPERTSGIGDSRPPSFHPNVSSSHENLEPETETESVVSLRRDRPRRRDSSEHGAGGHRPGGPSRLERHLAGYESSSTLMTSELESTSLGDSDEDDTMSRFSSSTEQSSASRLLKRHRRRRKQRPPRMERTSSFSSVTDSTMSLNIITVTLNMEKYNFLGISIVGQSNERGDGGIYIGSIMKGGAVAADGRIEPGDMLLQVNDMNFENMSNDDAVRVLRDIVHKPGPIVLTVAKCWDPSPQAYFTLPRNEPIQPIDPAAWVSHSAALTGAFPAYPGSSSMSTITSGSSLPDGCEGRGLSVHMDMASVTKAMAAPESGLEVRDRMWLKITIPNAFLGSDVVDWLYHHVEGFPERREARKYASGLLKAGLIRHTVNKITFSEQCYYVFGDLSGGCESYLVNLSLNDNDGSSGASDQDTLAPLPGATPWPLLPTFSYQYPAPHPYSPQPPPYHELSSYTYGGGSASSQHSEGSRSSGSTRSDGGAGRTGRPEERAPESKSGSGSESELSSRGGSLRRGGEPGGTGDGGPPPSRGSTGAPPNLRALPGLHPYGAPSGMALPYNPMMVVMMPPPPPPVSTAVQPPGAPPVRDLGSVPPELTASRQSFHMAMGNPSEFFVDVM
Consider B3, for which the binding entry in assay [4] was “binds”.

B4: HA-tagged Dvl1 (protein, UniProt P51141 1-695)
chain: MAETKIIYHMDEEETPYLVKLPVAPERVTLADFKNVLSNRPVHAYKFFFKSMDQDFGVVKEEIFDDNAKLPCFNGRVVSWLVLAEGAHSDAGSQGTDSHTDLPPPLERTGGIGDSRPPSFHPNVASSRDGMDNETGTESMVSHRRERARRRNRDEAARTNGHPRGDRRRDLGLPPDSASTVLSSELESSSFIDSDEEDNTSRLSSSTEQSTSSRLVRKHKCRRRKQRLRQTDRASSFSSITDSTMSLNIITVTLNMERHHFLGISIVGQSNDRGDGGIYIGSIMKGGAVAADGRIEPGDMLLQVNDVNFENMSNDDAVRVLREIVSQTGPISLTVAKCWDPTPRSYFTIPRADPVRPIDPAAWLSHTAALTGALPRYGTSPCSSAITRTSSSSLTSSVPGAPQLEEAPLTVKSDMSAIVRVMQLPDSGLEIRDRMWLKITIANAVIGADVVDWLYTHVEGFKERREARKYASSMLKHGFLRHTVNKITFSEQCYYVFGDLCSNLASLNLNSGSSGASDQDTLAPLPHPSVPWPLGQGYPYQYPGPPPCFPPAYQDPGFSCGSGSAGSQQSEGSKSSGSTRSSHRTPGREERRATGAGGSGSESDHTVPSGSGSTGWWERPVSQLSRGSSPRSQASAVAPGLPPLHPLTKAYAVVGGPPGGPPVRELAAVPPELTGSRQSFQKAMGNPCEFFVDIM
Consider B4, for which the binding entry in assay [5] and in assay [3] was “binds” in each case.

B5: myc-Par6 (hPAR6C) (protein, UniProt Q9NPB6 1-346)
chain: MARPQRTPARSPDSIVEVKSKFDAEFRRFALPRASVSGFQEFSRLLRAVHQIPGLDVLLGYTDAHGDLLPLTNDDSLHRALASGPPPLRLLVQKRAEADSSGLAFASNSLQRRKKGLLLRPVAPLRTRPPLLISLPQDFRQVSSVIDVDLLPETHRRVRLHKHGSDRPLGFYIRDGMSVRVAPQGLERVPGIFISRLVRGGLAESTGLLAVSDEILEVNGIEVAGKTLDQVTDMMVANSHNLIVTVKPANQRNNVVRGASGRLTGPPSAGPGPAEPDSDDDSSDLVIENRQPPSSNGLSQGPPCWDLHPGCRHPGTRSSLPSLDDQEQASSGWGSRIRGDGSGFSL
Take B5: in assay [2], the binding entry was “binds”.

B6: HA-PKCζ-C (236–592 amino acids) (domain or fragment, UniProt Q05513 236-592)
chain: DGMDGIKISQGLGLQDFDLIRVIGRGSYAKVLLVRLKKNDQIYAMKVVKKELVHDDEDIDWVQTEKHVFEQASSNPFLVGLHSCFQTTSRLFLVIEYVNGGDLMFHMQRQRKLPEEHARFYAAEICIALNFLHERGIIYRDLKLDNVLLDADGHIKLTDYGMCKEGLGPGDTTSTFCGTPNYIAPEILRGEEYGFSVDWWALGVLMFEMMAGRSPFDIITDNPDMNTEDYLFQVILEKPIRIPRFLSVKASHVLKGFLNKDPKERLGCRPQTGFSDIKSHAFFRSIDWDLLEKKQALPPFQPQITDDYGLDNFDTQFTSEPVQLTPDDEDAIKRIDQSEFEGFEYINPLLLSTEESV
Turning to B6, the binding result in assay [3] is “binds”.
